From patent US8227510B2, “Combine use of pterostilbene and quercetin for the production of cancer treatment medicaments” (Universitat de Valencia, priority 2004, dated 2012)
For part of these data: At least one compound was matched to its structure with a doubt left. Some results were stated once for a whole list of compounds, not compound by compound.

What was measured:
[1] = Extravascular (tissue) levels after intravenous administration in mice; assay type: in vivo; conditions: i.v. administration
Experimental: For the pharmacokinetic studies and for the daily treatment, the mice were administered i.v. (via the jugular vein, where a permanent catheter had previously been fixed by surgical methods; i.v. administration was carried out slowly for 1 minute), and orally (via stomach tube), 20 mg/kg of t-PTER (dissolved in ethanol 0.5 ml/kg of animal weight) or QUER (dissolved in dimethylsulfoxide:saline, 1:0.5 0.15 ml/kg of weight). In general, the compositions based on a combination of PTER and QUER can contain, as excipients, those stated previously or any others that are pharmaceutically acceptable. The presentation of said compositions can be, non-limitatively, in the form of solids such as tablets, capsules, pellets, pills, etc. and liquid presentations such as drops, syrups, injectables, etc. Moreover, the active principles (PTER and QUER) of the composition can be in their uncombined forms or in the form of pharmaceutically acceptable salts, including esters. The t-PTER was synthesized in our laboratory following standardized reactions of Wittig and Heck (www.orgsyn.org), whereas the QUER was obtained from Sigma Chemical Co. (San Luis, Mo., USA). […] The radioactivity was measured using a Varisette 2700 TR analyzer from Packard. […]
To supplement the pharmacokinetics in plasma/blood, we also evaluated the bioavailability of PTER and QUER in extravascular tissues. […]

[2] = test system: B16M-F10 cells; assay: Inhibition in vitro of the growth of B16M-F10 cells; assay type: cell-based; conditions: t-PTER 11 μM and/or QUER 1 μM, constantly present in the medium
Experimental: B16M-F10 cells were cultured in Dulbecco's modified Eagle's medium (DMEM; Gibco Labs., Grand Island, N.Y., USA), pH 7.4, supplemented with 10% fetal serum (Gibco), HEPES 10 mM, NaHCO3 40 mM, 100 U/ml of penicillin and 100 μg/ml of streptomycin (20).
The B16M-F10 melanoma, highly aggressive, is a model that is widely used for investigating metastatic spread and tissue invasion (21), and for this reason was chosen for our studies. In the first group of experiments, we studied the effect in vitro of t-PTER+QUER on the growth of B16M-F10 cells. To reproduce the conditions in vivo after i.v. administration, we incubated B16M-F10 cells in the presence of t-PTER (40 μM) and/or QUER (20 μM) for a limited period (60 minutes) (this represents a value that approximates to the average of the concentrations of PTER and QUER measured in the plasma during the first hour after i.v. administration of 20 mg/kg of each polyphenol (FIG. 2). For comparison, we also used t-RESV (12 μM; selection of this concentration was based on a similar criterion, see the data cited in ref. 14). The polyphenols were added to the incubation medium every 24 hours and, as mentioned, they were only present for 60 minutes. […]

O=c1c(O)c(-c2ccc(O)c(O)c2)oc2cc(O)cc(O)c12 [QUER, quercetin]
time of highest content in brain, lung, liver and kidney [1]: ≤ 5 min

COc1cc(/C=C/c2ccc(O)cc2)cc(OC)c1 [PTER, pterostilbene]
time of highest content in brain, lung, liver and kidney [1]: ≤ 5 min
effect on growth of B16M-F10 cells at concentrations found after oral administration [2]: did not have a significant effect
